Results are given in words; binding and its absence hold for the method and conditions named. In cells and extracts the contact can be indirect. Some entries that bind do so weakly or less than the wild type. Tags and fused reporters may be left off the sequences shown.

The chains behind the UniProt entries cited, without tags or fusion partners. Residues count along the entry.
UniProt Q9QZQ1, residues 6-370: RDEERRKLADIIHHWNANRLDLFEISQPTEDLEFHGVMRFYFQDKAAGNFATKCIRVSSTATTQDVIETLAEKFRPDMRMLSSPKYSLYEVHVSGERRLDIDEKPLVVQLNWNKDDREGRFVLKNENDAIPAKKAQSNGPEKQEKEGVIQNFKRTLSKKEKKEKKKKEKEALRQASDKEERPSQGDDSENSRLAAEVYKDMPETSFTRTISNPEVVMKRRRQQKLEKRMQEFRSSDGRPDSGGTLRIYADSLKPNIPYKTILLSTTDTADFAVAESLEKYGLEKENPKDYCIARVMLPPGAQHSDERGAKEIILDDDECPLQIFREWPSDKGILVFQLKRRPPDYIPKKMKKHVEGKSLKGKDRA

The source of these data is PMC9355967.

This assay addresses GST-AFDN RA1/2 (dual RA domains, residues 6-370) (mouse) (UniProt Q9QZQ1). Kind of assay: pull-down; GST-tagged RA/RBD domains purified from bacteria on glutathione beads mixed with lysates of cells expressing GTPases; beads washed 5X; anti-GFP blot; only the target purified.

B1: EGFP-RAP2C-G12V (protein, UniProt Q9Y3L5 1-183)
chain: MREYKVVVLGSVGVGKSALTVQFVTGTFIEKYDPTIEDFYRKEIEVDSSPSVLEILDTAGTEQFASMRDLYIKNGQGFILVYSLVNQQSFQDIKPMRDQIVRVKRYEKVPLILVGNKVDLEPEREVMSSEGRALAQEWGCPFMETSAKSKSMVDELFAEIVRQMNYSSLPEKQDQCCTTCVVQ
For B1, the binding entry is given as “binds”.
